Results as given in patent publication US8216974B2, “Fluorine-containing organosulfur compound and pesticidal composition comprising the same” (Sumitomo Chemical Company, Limited, priority 2007, dated 2012).
Some entries share one result that the patent states for a list of compounds.

system: Musca domestica; assay: Test Example 3: filter paper with sucrose bait, Musca domestica; format: in vivo; conditions: 500 ppm, 0.7 ml on filter paper; 10 female imagoes; after 24 hours

With NC(=O)C(F)(c1ccc(Cl)c(F)c1)S(=O)(=O)CCC(F)(F)F (stereo not drawn) [present compound (3), 2-(4-chloro-3-fluorophenyl)-2-fluoro-2-(3,3,3-trifluoropropylsulfonyl)acetamide] as the compound, how does the pest death rate read?
The pest death rate was ≥ 90%.

NC(=O)C(F)(c1ccc(C(F)(F)F)cc1)S(=O)(=O)CCC(F)(F)F (stereo not drawn) [present compound (5), 2-fluoro-2-(3,3,3-trifluoropropylsulfonyl)-2-(4-trifluoromethylphenyl)acetamide] was tested. Which pest death rate did it give?
Its pest death rate is ≥ 90%.

Which pest death rate does the source give for NC(=O)C(Cl)(Cc1ccccc1C(F)(F)F)S(=O)(=O)CCC(F)(F)F (stereo not drawn) [present compound (10), 2-chloro-3-(2-trifluoromethylphenyl)-2-(3,3,3-trifluoropropylsulfonyl)propaneamide] here?
Its pest death rate is ≥ 40%.

NC(=O)C(F)(c1ccc(Cl)cc1)S(=O)(=O)CCC(F)(F)F (stereo not drawn) [present compound (4), 2-(4-chlorophenyl)-2-fluoro-2-(3,3,3-trifluoropropylsulfonyl)acetamide] was tested. Which pest death rate did it give?
Its pest death rate is ≥ 90%.

With NC(=O)C(F)(c1cc(F)c(F)c(F)c1)S(=O)(=O)CCC(F)(F)F (stereo not drawn) [present compound (1), 2-fluoro-2-(3,3,3-trifluoropropylsulfonyl)-2-(3,4,5-trifluorophenyl)acetamide] as the compound, how does the pest death rate read?
Its pest death rate is ≥ 90%.

For CC(C(N)=O)(c1cc(F)c(F)c(F)c1)S(=O)(=O)CCC(F)(F)F (stereo not drawn) [present compound (2), 2-(3,4,5-trifluorophenyl)-2-(3,3,3-trifluoropropylsulfonyl)propaneamide], which pest death rate is on record?
Its pest death rate is ≥ 40%.
